A short description of the series: general procedure: solution-phase peptide synthesis; DEPC/DIEA; TBTU/DIEA. As to conditions: for final HPLC purity: HPLC (AUC).

Consider Fmoc-MeVal-Val-Dil-Dap-Phe-ODMB, for which, for the setting “coupling step”, the step yield is 73% and the “final HPLC purity” value is on record as 93% purity by HPLC (AUC).

As to Fmoc-Val-Cit-PAB-MMAF, the step yield (late stage modification step) turned out to be 40%.

The substance Fmoc-Val-Cit-PAB-MMAF-OtBu had a conjugation yield (conjugation step) of 59%.

In the case of MB-MeVal-Val-Dil-Dap-Phe-OtBu, where the note is “conjugation step”, the conjugation yield worked out at 46% yield.

Under “conjugation step”, MC-MeVal-Cit-PAB-MMAF displayed a conjugation yield of 0.45%.

Take MC-MeVal-Val-Dil-Dap-Phe-ODMB: for the setting “conjugation step”, the conjugation yield stood at 57% and the “final HPLC purity” value is reported as 94% purity by HPLC(AUC).

MC-MeVal-Val-Dil-Dap-Phe-OH (MC-MMAF): under “late stage modification step”, the step yield was 73% and the “final HPLC purity” value was 92% purity by HPLC.

For the substance MC-MeVal-Val-Dil-Dap-Phe-OtBu, the conjugation yield (conjugation step) was found to be 60% yield.

In turn, MC-Val-Cit-PAB-MMAF t-butyl Ester showed a conjugation yield (conjugation step) of 71%.

In the case of MeVal-Val-Dil-Dap-Phe-ODMB, under “late stage modification step”, the step yield is recorded as 69% and the “final HPLC purity” value is given as 96% purity by HPLC (AUC).

In turn, MeVal-Val-Dil-Dap-Phe-OtBu showed a step yield (late stage modification step) of 87%.

As for “Succinimide Ester of Suberyl-Val-Cit-PAB-MMAF”, the step yield (late stage modification step) amounted to 29%.

For the setting “late stage modification step”, “maleimidocaproyl-valine-citrulline-p-hydroxymethylaminobenzene-MMAF (MC-val-cit-PAB-MMAF)” yielded a step yield of 25%.

The values above are taken from US7964567B2 (Seattle Genetics, Inc., priority 2003, dated 2011).
